Results as given in ChEMBL document CHEMBL5137126, “Alliacane-Type Secondary Metabolites from Submerged Cultures of the Basidiomycete Clitocybe nebularis” (J Nat Prod, 2022).

Test system: Candida albicans
Experiment: Antifungal activity against Candida albicans DSM1665 assessed as inhibition of fungal growth incubated overnight by serial dilution method
Assay type: functional

NYSTATIN
MIC: 9.2 µg/mL
